Where a chain is given by its changes, count along the chain named. These are yes or no findings as the source states them, for the method shown. Some binding calls cover weakened binding; strength is not graded here. For some of these results: Tags and fused reporters may be left off the sequences shown. Each block holds one binder with its values, some of them ahead of it.
Experiments:
[1] = biological target: CD127 on baboon T cells (baboon); assay: flow cytometry on baboon PBMCs [A]
[2] = biological target: CD127 on baboon T cells (baboon); assay: flow cytometry on baboon T cells (PBMCs)
[3] = biological target: CD127 expressed by human T cells (human) (UniProt P16871); assay: hybridoma screening on human T cells
[4] = biological target: CD127 expressed by human T cells (human) (UniProt P16871); assay: flow cytometry on human PBMCs [B]
[5] = biological target: T1, Recombinant hCD127 (Sino Biologicals, reference 10975-H08H) (human) (UniProt P16871); assay: ELISA, recombinant hCD127 immobilized on plastic
T1 sequence (looked up): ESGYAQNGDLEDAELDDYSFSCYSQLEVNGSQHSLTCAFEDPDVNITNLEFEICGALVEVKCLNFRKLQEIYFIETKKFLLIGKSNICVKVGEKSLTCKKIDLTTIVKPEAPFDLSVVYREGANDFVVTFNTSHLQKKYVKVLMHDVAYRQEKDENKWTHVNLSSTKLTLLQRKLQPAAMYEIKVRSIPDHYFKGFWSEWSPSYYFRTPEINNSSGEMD

[6] = biological target: T2, Recombinant CD127 Fc Chimera (10975-H03H, Sino Biological) (human) (UniProt P16871); assay: hybridoma screening on recombinant CD127 Fc Chimera
T2 sequence (looked up): T1 sequence (looked up)

[7] = biological target: CD127 on Cynomolgus Macaque T cells (Cynomolgus Macaque) (UniProt Q38IC7); assay: flow cytometry on macaque T cells (PBMCs)
[8] = biological target: T1, Recombinant hCD127 (Sino Biologicals, reference 10975-H08H) (human); assay: ELISA, plate coated with recombinant human IL-7 receptor at 5 µg/ml, anti-rat Ig peroxidase detection
[9] = biological target: CD127 on Cynomolgus Macaque T cells (Cynomolgus Macaque) (UniProt Q38IC7); assay: flow cytometry on macaque PBMCs [B]
[10] = biological target: CD127 on baboon T cells (baboon); assay: flow cytometry on baboon PBMCs [B]

- binding [1]: binds
- binding [2]: binds
B1: MD707-1 (antibody, V domains shown)
VH: AVHLVESGGGLVQPKESLKISCAASGFTFSNAAMFWVRQAPGKGLEWVARIRTKANNYATYYADSVKGRFTISRDDSKSMVYLQMDNVKTDDTAMYYCIVVVLTTTRDYFDYWGQGVMVTVSS
VL: DIVLTQAPLSVSVTPGESASISCRSSQSLLTVKGITSLYWFLQKPGKSPQLLMYRMSNLASGVPDRFRGSGSETDFTLKISKVETEDVGVYYCAQFLEYPHTFGAGTKLELKR
notes: also called 7MD07-1; rat anti-human CD127 Mab MD707-1

- binding [1]: binds
- binding [2]: binds
B2: MD707-3 (antibody, V domains shown)
VH: B1 VH with F35Y, D64E
VL: B1 VL with M53I
notes: also called 7MD07-3; rat anti-human CD127 Mab MD707-3

- binding [3]: binds
- binding [2]: binds
- binding [4]: binds
- binding [5]: binds
- binding [6]: binds
- binding [7]: binds
- binding [8]: binds
- binding [9]: binds
- binding [10]: binds
B3: MD707-13 (antibody, V domains shown)
VH: QLKESGPGLVQPSQTLSLTCTVSGLSLPNNNIAWIRQSPGKGLEWMGVIWSNGDTDYNSAIRSRLSISRDSSKSQVFLRMNSLQSEDTAMYFCAREGMTTLDYWGQGVVVTVSS
VL: EIVLTQSPTTMAASPGEKVTITCRASSSVSYMHWFQQKSGSSPKPWIYDSSDLASGVPDRFSGSGSGTSYSLTISSMEAEDAATYYCLQRSSYPRTFGGGTKLELKR
notes: also called 7MD07-13; rat anti-human CD127 Mab MD707-13

— US20140308281A1 (OSE IMMUNOTHERAPEUTICS, published 2014)
